Source: the supplement of paper PMC7666118
The other results are listed elsewhere or left out.

Protein sequences, listed by entry. Tags and fused reporters are not part of them. Lines headed by an entry give the natural chain unless they say otherwise; changes in a name come on top.
UniProt Q9UHA4, whole entry: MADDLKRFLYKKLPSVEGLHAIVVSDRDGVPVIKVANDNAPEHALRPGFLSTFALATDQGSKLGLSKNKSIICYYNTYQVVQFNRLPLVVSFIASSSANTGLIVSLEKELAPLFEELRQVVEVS
UniProt O43451: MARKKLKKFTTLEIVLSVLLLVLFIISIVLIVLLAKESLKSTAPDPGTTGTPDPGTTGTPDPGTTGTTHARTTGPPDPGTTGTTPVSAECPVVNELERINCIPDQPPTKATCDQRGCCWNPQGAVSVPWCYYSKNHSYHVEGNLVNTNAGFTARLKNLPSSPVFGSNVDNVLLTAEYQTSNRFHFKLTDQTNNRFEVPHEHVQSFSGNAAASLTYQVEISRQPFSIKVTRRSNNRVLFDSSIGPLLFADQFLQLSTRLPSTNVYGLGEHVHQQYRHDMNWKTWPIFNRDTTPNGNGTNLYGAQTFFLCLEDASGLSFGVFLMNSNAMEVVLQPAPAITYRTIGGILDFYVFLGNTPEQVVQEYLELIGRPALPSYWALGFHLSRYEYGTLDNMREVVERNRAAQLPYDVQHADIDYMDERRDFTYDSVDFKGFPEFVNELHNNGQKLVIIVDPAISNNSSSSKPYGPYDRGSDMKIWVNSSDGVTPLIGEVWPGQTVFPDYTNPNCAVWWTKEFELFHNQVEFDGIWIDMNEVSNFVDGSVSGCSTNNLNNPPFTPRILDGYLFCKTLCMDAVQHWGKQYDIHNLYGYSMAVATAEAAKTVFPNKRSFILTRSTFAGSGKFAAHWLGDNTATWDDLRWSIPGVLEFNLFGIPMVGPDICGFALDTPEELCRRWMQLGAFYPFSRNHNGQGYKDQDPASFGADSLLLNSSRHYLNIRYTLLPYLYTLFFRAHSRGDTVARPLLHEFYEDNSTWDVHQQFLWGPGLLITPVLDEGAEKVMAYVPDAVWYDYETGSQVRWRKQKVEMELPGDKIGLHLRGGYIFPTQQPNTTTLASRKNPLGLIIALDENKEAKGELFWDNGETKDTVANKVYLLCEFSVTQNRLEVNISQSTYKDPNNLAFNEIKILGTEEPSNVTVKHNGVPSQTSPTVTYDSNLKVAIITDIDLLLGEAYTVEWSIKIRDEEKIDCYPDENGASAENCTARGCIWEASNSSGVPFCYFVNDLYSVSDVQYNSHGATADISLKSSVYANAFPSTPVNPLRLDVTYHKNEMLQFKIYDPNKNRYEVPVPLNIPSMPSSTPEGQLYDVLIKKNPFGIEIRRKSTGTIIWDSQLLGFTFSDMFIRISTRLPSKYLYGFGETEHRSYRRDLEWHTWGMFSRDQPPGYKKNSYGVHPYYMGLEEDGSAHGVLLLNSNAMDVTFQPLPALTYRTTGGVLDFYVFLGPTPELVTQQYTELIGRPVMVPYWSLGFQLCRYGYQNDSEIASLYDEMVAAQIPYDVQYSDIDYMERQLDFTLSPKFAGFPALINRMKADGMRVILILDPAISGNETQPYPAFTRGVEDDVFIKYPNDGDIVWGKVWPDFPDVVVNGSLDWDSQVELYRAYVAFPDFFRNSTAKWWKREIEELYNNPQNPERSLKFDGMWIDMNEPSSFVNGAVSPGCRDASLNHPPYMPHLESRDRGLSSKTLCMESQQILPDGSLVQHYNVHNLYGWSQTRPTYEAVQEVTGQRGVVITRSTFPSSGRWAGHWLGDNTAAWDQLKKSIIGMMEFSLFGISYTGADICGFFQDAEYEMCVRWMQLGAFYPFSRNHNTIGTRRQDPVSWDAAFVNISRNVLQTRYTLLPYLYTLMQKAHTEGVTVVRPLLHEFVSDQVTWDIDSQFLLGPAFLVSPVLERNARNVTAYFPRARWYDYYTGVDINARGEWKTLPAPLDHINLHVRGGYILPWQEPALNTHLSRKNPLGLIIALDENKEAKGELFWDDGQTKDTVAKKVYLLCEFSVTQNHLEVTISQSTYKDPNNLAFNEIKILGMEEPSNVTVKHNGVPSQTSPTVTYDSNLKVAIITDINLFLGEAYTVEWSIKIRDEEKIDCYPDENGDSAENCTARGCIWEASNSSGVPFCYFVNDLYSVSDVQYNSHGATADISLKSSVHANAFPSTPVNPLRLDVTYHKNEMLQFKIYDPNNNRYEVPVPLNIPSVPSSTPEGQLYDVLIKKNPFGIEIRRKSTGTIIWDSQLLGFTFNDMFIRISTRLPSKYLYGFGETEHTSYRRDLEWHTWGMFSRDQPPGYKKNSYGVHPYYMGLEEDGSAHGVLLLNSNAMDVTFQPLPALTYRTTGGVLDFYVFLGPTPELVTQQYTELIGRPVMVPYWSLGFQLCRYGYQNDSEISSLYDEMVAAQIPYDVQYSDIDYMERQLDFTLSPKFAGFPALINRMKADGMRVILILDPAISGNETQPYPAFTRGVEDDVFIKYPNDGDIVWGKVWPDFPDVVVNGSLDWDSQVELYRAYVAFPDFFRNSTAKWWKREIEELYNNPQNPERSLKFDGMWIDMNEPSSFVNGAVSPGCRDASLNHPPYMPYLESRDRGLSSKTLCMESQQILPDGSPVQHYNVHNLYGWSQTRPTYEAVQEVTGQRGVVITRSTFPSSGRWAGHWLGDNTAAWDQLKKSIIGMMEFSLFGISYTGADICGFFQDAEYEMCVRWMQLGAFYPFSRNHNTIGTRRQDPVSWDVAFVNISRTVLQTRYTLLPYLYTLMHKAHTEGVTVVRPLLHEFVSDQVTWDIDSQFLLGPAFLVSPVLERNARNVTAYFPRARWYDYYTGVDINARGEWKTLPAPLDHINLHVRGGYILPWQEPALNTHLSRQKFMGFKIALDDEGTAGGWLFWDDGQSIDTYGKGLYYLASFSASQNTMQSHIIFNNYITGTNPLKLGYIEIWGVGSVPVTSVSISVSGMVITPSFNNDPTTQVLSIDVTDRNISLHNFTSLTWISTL
UniProt P33992: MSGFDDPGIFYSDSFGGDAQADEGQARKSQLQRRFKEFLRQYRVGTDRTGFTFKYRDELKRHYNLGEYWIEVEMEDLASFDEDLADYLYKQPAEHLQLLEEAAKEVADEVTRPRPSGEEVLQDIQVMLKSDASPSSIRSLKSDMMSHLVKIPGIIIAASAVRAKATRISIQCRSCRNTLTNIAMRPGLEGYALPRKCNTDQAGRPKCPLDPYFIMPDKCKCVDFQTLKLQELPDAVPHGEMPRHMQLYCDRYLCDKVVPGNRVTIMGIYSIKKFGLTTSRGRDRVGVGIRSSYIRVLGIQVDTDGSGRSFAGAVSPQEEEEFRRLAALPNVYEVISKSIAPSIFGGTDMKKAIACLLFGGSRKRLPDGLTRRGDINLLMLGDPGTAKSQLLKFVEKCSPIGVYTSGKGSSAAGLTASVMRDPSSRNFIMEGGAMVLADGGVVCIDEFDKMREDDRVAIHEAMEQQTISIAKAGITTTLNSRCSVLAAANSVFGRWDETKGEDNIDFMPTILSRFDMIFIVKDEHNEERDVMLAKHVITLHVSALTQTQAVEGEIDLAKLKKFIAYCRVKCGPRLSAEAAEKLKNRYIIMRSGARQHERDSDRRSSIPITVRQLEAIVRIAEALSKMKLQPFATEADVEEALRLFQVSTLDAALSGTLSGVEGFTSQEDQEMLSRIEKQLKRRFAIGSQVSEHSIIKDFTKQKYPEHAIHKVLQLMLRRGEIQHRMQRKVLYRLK
UniProt Q9Y4U1: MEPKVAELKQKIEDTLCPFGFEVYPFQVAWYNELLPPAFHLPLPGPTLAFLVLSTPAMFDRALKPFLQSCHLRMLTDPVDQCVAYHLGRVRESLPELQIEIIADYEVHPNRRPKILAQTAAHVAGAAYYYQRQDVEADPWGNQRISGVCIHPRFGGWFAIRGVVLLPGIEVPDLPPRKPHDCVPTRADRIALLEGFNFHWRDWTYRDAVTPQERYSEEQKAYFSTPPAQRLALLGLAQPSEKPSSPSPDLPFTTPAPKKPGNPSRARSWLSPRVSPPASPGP
UniProt Q14676: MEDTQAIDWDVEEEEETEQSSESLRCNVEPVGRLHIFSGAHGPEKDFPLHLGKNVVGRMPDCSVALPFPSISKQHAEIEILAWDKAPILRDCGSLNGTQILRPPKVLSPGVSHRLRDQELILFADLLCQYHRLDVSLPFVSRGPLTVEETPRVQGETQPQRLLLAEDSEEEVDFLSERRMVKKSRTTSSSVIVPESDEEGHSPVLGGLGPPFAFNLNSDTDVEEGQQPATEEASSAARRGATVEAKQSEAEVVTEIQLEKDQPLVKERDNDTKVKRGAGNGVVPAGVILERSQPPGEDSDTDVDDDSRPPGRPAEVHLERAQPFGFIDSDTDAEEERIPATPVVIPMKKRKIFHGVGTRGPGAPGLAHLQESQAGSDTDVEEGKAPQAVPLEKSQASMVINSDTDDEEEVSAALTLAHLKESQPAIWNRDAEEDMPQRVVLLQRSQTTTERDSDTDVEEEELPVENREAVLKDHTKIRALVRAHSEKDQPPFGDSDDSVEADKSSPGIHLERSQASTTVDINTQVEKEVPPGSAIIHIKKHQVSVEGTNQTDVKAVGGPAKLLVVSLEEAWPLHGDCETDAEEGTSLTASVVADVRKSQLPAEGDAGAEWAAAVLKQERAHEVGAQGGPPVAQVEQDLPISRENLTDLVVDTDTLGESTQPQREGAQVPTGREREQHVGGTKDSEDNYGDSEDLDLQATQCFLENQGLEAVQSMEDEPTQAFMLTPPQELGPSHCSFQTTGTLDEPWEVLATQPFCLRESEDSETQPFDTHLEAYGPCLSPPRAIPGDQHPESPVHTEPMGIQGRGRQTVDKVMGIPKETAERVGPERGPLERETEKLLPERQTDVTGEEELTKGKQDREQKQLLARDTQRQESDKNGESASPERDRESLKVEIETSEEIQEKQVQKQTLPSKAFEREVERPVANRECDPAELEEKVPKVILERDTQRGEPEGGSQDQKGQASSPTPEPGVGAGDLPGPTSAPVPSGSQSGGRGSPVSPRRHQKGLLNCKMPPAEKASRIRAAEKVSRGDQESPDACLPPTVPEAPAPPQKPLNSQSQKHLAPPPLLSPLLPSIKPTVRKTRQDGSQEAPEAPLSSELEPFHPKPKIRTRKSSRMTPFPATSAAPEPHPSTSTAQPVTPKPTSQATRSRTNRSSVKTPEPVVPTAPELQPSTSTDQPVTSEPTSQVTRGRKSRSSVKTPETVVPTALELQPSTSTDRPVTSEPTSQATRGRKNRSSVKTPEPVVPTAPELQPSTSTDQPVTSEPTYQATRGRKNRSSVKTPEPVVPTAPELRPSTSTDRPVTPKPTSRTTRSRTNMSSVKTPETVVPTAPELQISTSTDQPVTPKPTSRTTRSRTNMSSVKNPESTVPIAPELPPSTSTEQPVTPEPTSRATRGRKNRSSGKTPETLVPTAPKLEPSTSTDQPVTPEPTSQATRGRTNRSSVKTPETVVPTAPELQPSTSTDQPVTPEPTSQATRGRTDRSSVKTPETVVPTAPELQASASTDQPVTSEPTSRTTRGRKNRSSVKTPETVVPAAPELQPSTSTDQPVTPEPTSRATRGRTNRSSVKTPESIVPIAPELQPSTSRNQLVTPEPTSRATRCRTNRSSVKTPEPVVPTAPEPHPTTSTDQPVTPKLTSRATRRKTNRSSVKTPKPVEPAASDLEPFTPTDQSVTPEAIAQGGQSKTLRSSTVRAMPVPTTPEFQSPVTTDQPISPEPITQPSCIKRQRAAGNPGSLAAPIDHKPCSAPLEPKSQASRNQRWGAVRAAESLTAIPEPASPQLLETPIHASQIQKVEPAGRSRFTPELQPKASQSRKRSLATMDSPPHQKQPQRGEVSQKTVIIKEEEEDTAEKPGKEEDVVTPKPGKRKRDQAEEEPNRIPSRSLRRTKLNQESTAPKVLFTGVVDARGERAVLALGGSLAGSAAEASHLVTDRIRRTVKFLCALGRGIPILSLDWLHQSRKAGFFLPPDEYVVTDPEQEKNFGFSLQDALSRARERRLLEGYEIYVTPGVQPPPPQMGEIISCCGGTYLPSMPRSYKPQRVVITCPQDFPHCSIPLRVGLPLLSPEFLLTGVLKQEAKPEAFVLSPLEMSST
UniProt O43462: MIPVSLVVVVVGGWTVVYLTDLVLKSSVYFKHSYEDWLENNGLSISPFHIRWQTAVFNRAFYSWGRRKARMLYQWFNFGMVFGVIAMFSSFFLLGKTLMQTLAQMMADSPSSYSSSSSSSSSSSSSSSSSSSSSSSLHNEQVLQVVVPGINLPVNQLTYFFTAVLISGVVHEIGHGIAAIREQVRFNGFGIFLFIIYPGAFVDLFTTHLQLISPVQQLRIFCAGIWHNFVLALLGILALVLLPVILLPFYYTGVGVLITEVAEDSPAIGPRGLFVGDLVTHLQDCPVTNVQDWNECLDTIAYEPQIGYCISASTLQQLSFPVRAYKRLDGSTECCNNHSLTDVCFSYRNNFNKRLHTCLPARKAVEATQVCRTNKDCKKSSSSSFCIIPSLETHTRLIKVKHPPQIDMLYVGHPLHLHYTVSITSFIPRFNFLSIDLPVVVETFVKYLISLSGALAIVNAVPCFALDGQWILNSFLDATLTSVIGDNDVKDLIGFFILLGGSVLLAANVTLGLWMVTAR

Compound: COc1ccc(Cn2ccc3ccc(C(=O)NO)cc32)cc1
Assay: dose-dependent thermal stabilisation call (2D-TPP, DLPTP, 10% FDR) (binary (1 = stabilised)); higher = stabilised by the compound
Conditions: system: HL-60 intact cells; concentration range 0.04-10 µM

Target | dose-dependent thermal stabilisation call
MAPKSP1 (UniProt Q9UHA4) | inactive: 0
MGAM (UniProt O43451) | inactive: 0
MARCH6 (UniProt O60337) | inactive: 0
MAP3K4 (UniProt Q9Y6R4) | inactive: 0
MARK3 (UniProt P27448) | inactive: 0
MCM5 (UniProt P33992) | inactive: 0
MOBKL3 (UniProt Q9Y3A3) | inactive: 0
MRPS18B (UniProt Q9Y676) | inactive: 0
MMACHC (UniProt Q9Y4U1) | inactive: 0
MATK (UniProt P42679) | inactive: 0
METTL7A (UniProt Q9H8H3) | inactive: 0
MRPL51 (UniProt Q4U2R6) | inactive: 0
MGC3207 | inactive: 0
MDC1 (UniProt Q14676) | inactive: 0
METAP2 (UniProt P50579) | active: 1
MAP2K1 (UniProt Q02750) | inactive: 0
MGC52424 | inactive: 0
MRPL45 (UniProt Q9BRJ2) | inactive: 0
MOBKL2A (UniProt Q96BX8) | inactive: 0
MRPL35 (UniProt Q9NZE8) | inactive: 0
MRPS16 (UniProt Q9Y3D3) | inactive: 0
MIB1 (UniProt Q86YT6) | inactive: 0
MBTPS2 (UniProt O43462) | inactive: 0
MRPL41 (UniProt Q8IXM3) | inactive: 0
MGEA5 (UniProt O60502) | inactive: 0
MAP4K2 (UniProt Q12851) | inactive: 0
MDH1 (UniProt P40925) | active: 1

Reformatted: entries from further up
Target	dose-dependent thermal stabilisation call
MCM5 (UniProt P33992)	inactive: 0
MOBKL3 (UniProt Q9Y3A3)	inactive: 0
MRPS18B (UniProt Q9Y676)	inactive: 0
MMACHC (UniProt Q9Y4U1)	inactive: 0
MATK (UniProt P42679)	inactive: 0
METTL7A (UniProt Q9H8H3)	inactive: 0
MRPL51 (UniProt Q4U2R6)	inactive: 0
